Results are given in words; binding and its absence hold for the method and conditions named. In cells and extracts the contact can be indirect. A result given as binding can be weak or reduced; the word gives no strength.
Experiments:
[1] = target: T1, VDAC1-mCitrine (FLIM-FRET) (Arabidopsis thaliana) (UniProt Q9SRH5); assay: FRET or BRET; FLIM-FRET; mCitrine donor and mCherry acceptor fusions constitutively expressed in plant cell culture; enolase-mCitrine with free mCherry as negative control
T1 sequence: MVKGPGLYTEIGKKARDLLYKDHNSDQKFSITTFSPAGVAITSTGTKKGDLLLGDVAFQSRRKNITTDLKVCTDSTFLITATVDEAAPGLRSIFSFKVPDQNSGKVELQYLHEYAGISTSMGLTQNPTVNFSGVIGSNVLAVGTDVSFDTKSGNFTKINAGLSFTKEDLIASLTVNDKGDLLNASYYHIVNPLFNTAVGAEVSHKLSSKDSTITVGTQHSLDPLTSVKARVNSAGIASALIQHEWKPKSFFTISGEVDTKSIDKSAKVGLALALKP

[2] = target: T2, VDAC3-mCitrine (FLIM-FRET) (Arabidopsis thaliana) (UniProt Q9SMX3); assay: as above
T2 sequence: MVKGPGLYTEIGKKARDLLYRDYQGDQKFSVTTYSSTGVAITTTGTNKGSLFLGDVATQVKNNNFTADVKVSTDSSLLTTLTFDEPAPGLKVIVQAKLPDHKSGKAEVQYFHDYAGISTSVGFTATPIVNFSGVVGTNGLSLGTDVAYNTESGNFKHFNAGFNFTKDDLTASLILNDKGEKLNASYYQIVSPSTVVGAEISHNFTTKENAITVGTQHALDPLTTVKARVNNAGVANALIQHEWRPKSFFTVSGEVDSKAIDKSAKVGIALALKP

[3] = target: T3, VDAC3-NE (BiFC) (Arabidopsis thaliana) (UniProt Q9SMX3); assay: split reporter; BiFC with split-mCitrine (NE, CE); transient expression in Arabidopsis mesophyll protoplasts and agroinfiltrated Arabidopsis leaves; confocal microscopy
T3 sequence: T2 sequence

[4] = target: T4, VDAC1-NE (BiFC) (Arabidopsis thaliana) (UniProt Q9SRH5); assay: as above
T4 sequence: T1 sequence

binding [1]	binding [2]	binding [3]	binding [4]	Substance
binds	binds	–	–	PYK4 fluorescent fusion (FLIM-FRET) (Arabidopsis thaliana) (enzyme)
–	–	binds	binds	PYK4-CE (BiFC) (Arabidopsis thaliana) (enzyme)
